Test results published in the supplement of paper PMC9254222.
In all, about 1,100 compounds were measured (“Renilla luciferase signal (cell health) relative to plate median”: median about 0.97, highest 2% from about 1.6 on). Only a part is listed here, and it is no random draw.

Test system: HEK293T (UBE3A T485A transfected, BAR Wnt reporter)
Test: Renilla luciferase signal (cell health) relative to plate median (fold (linear ratio)); higher = higher Renilla signal
Conditions: 24 h
Procedure, shortened: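 Wnt activity (firefly/Renilla ratio) and cell health (raw Renilla) were read with Dual-Glo luciferase and median-centred plate by plate. HEK293T cells, at 4500 cells/well in white 384-well plates with DMEM plus 10% FBS at 37°C and 5% CO2, carried a transfected BAR firefly luciferase Wnt reporter, TK-Renilla and an expression plasmid. The chemicals were applied by robot at 0.01–100 uM for 24 h, beginning four hours after transfection, and results were averaged across four biological replicates.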

| SMILES | Renilla luciferase signal (concentration: 0.01 uM) | Renilla luciferase signal (concentration: 0.1 uM) | Renilla luciferase signal (concentration: 1 uM) | Renilla luciferase signal (concentration: 10 uM) | Renilla luciferase signal (concentration: 100 uM) |
| --- | --- | --- | --- | --- | --- |
| CCCCOC(=O)c1ccccc1C(=O)OCCCC [Dibutyl phthalate] | 1.02 | 1.04 | 1.02 | 1.03 | 0.11 |
| NCCO.O=C(O)c1nc(Cl)ccc1Cl [Clopyralid-olamine] | 1.41 | 1.18 | 1.06 | 1.2 | 1.53 |
| CC(C)(C)c1cc(C(C)(C)C)c(O)c(C(C)(C)C)c1 [2,4,6-Tris(tert-butyl)phenol] | – | 0.951 | 1.04 | 1.18 | 1.73 |
| O=C(O)C(F)(F)C(F)(F)C(F)(F)C(F)(F)C(F)(F)C(F)(F)C(F)(F)C(F)(F)F | – | 0.913 | 1.01 | 0.971 | 0.134 |
| N#Cc1cccnc1 [3-Pyridinecarbonitrile] | – | 1.04 | 0.997 | 0.816 | 1.21 |
| Cc1ccccc1O [o-Cresol] | – | 0.937 | 0.939 | 1.02 | 1.06 |
| CCN(CC)C(=O)SCc1ccc(Cl)cc1 [Thiobencarb] | 1.06 | 0.767 | 0.904 | 1.02 | 1.05 |
| O=C(O)C(F)(F)C(F)(F)C(F)(F)C(F)(F)C(F)(F)C(F)(F)C(F)(F)C(F)(F)C(F)(F)F | – | 1.12 | 1.1 | 1.12 | 0.714 |
| CC(C)(c1ccccc1)c1ccc(O)cc1 [4-Cumylphenol] | – | 1.13 | 1.18 | 0.885 | 0.0488 |
| CCCCCCCCCc1ccc(O)cc1 [4-Nonylphenol] | – | 0.979 | 0.984 | 0.92 | 0.419 |
| CC(C)Oc1cccc(NC(=O)c2ccccc2C(F)(F)F)c1 [Flutolanil] | 0.958 | 0.913 | 0.934 | 0.913 | 1.07 |
| O=P(O)(O)CCCl [Ethephon] | 1.06 | 0.846 | 0.935 | 1.38 | 1.33 |
| O=C(Oc1ccc(Br)cc1)N1CCN2CCC1CC2 | – | 0.793 | 0.861 | 0.806 | 0.581 |
| ClCC(Cl)CCl [1,2,3-Trichloropropane] | – | 0.9 | 0.872 | 0.937 | 1.01 |
| O=NN(c1ccccc1)c1ccccc1 [N-Nitrosodiphenylamine] | – | 0.989 | 1.05 | 1.23 | 1.26 |
| CNC(=O)ON=CC(C)(C)SC [Aldicarb] | 1.1 | 0.924 | 0.97 | 0.918 | 1.72 |
| N#CSCSC#N [Methylene bis(thiocyanate)] | 1.18 | 1.16 | 1.12 | 1.2 | 0.00579 |
| CCCN(CCC)N=O [N-Nitrosodipropylamine] | – | 0.934 | 0.91 | 0.961 | 1.04 |
| O=[N+]([O-])c1ccccc1 [Nitrobenzene] | – | 0.931 | 0.977 | 0.817 | 0.932 |
| CCNc1nc(Cl)nc(NCC)n1 [Simazine] | 0.975 | 0.87 | 1.01 | 0.994 | 1.18 |
| Cc1ccc(/N=C/N(C)/C=N/c2ccc(C)cc2C)c(C)c1 [Amitraz] | 1.29 | 1.17 | 1.06 | 1.21 | 0.0374 |
| Cc1sc2c(c1C)C(c1ccc(Cl)cc1)=NC(CC(=O)OC(C)(C)C)c1nnc(C)n1-2 (racemic) | 0.854 | 0.716 | 0.785 | 1.12 | 0.237 |

Nothing new here: an excerpt of the list.

| SMILES | Renilla luciferase signal (concentration: 0.01 uM) | Renilla luciferase signal (concentration: 0.1 uM) | Renilla luciferase signal (concentration: 1 uM) | Renilla luciferase signal (concentration: 10 uM) | Renilla luciferase signal (concentration: 100 uM) |
| --- | --- | --- | --- | --- | --- |
| NCCO.O=C(O)c1nc(Cl)ccc1Cl [Clopyralid-olamine] | 1.41 | 1.18 | 1.06 | 1.2 | 1.53 |
| CC(C)(C)c1cc(C(C)(C)C)c(O)c(C(C)(C)C)c1 [2,4,6-Tris(tert-butyl)phenol] | – | 0.951 | 1.04 | 1.18 | 1.73 |

Further results follow:

| SMILES | Renilla luciferase signal (concentration: 0.01 uM) | Renilla luciferase signal (concentration: 0.1 uM) | Renilla luciferase signal (concentration: 1 uM) | Renilla luciferase signal (concentration: 10 uM) | Renilla luciferase signal (concentration: 100 uM) |
| --- | --- | --- | --- | --- | --- |
| O=C(O)C(F)(F)C(F)(F)C(F)(F)C(F)(F)C(F)(F)C(F)(F)C(F)(F)F | 0.983 | 0.781 | 0.834 | 0.9 | 1.9 |
| C=C(C)C(=O)[O][Sn]([CH2]CCC)([CH2]CCC)[CH2]CCC [Tributyltin methacrylate] | – | 0.701 | 0.686 | 0.499 | 0.0265 |
| COc1cc(-c2ccc(N)c(OC)c2)ccc1N [3,3'-Dimethoxybenzidine] | – | 0.89 | 0.92 | 0.684 | 0.388 |
| CC1(c2ccc(Oc3ccccc3)cc2)OC(=O)N(Nc2ccccc2)C1=O (centres undefined) [Famoxadone] | 1.07 | 1.08 | 1.07 | 0.383 | 1.15 |
| C=CC(=O)NCNC(=O)C=C [N,N'-Methylenebisacrylamide] | – | 0.813 | 0.815 | 0.84 | 0.722 |
| Brc1ccc(Oc2ccccc2)cc1 [p-Bromodiphenyl ether] | – | 0.896 | 0.914 | 0.837 | 0.987 |
| CCCSP(=O)(OCC)Oc1ccc(Br)cc1Cl (centres undefined) [Profenofos] | 0.9 | 0.888 | 0.969 | 1 | 0.894 |
| CN(C)N=O [N-Nitrosodimethylamine] | – | 0.934 | 0.919 | 0.945 | 1.15 |
| CCCCCCCCCC(CC)c1ccc(S(=O)(=O)O)cc1.OCCN(CCO)CCO (centres undefined) [Dodecylbenzene sulfonate triethanolamine(1:1)] | – | 1.09 | 0.943 | 0.966 | 0.841 |
| c1cc2ccc3cccc4ccc(c1)c2c34 [Pyrene] | – | 0.967 | 0.928 | 1.05 | 0.889 |
| COc1cc(-c2ccc(N)c(OC)c2)ccc1N.Cl.Cl [3,3'-Dimethoxybenzidine dihydrochloride] | – | 0.847 | 0.823 | 0.799 | 0.158 |
| CC(Cl)(Cl)C(=O)O [Dalapon] | – | 0.848 | 0.831 | 0.854 | 0.956 |
| C#CCOS(=O)OC1CCCCC1Oc1ccc(C(C)(C)C)cc1 (centres undefined) [Propargite] | 0.841 | 0.816 | 1.02 | 0.994 | 0.0642 |
| Cc1cc(C)cc(C)c1 [1,3,5-Trimethylbenzene] | – | 1.1 | 1.15 | 1.17 | 1.33 |
| Cc1cc(C2CC2)nc(Nc2ccccc2)n1 [Cyprodinil] | 1.12 | 1.03 | 1.11 | 1.08 | 0.557 |
| C[C@]12CCC(=O)C[C@@H]1CC[C@@H]1[C@@H]2CC[C@]2(C)[C@@H](O)CC[C@@H]12 [5alpha-Dihydrotestosterone] | – | – | – | – | 2.06 |
| CCCCOC(=O)c1ccccc1C(=O)OCc1ccccc1 [Benzyl butyl phthalate] | – | 1.05 | 1.23 | 1.28 | 1.04 |
| CCOP(=S)(OCC)SCSCC [Phorate] | – | 1.09 | 0.968 | 1.1 | 1.18 |
| Clc1ccc(Cl)c(Cl)c1 [1,2,4-Trichlorobenzene] | – | 1.24 | 1.27 | 1.34 | 1.39 |
| CCCCCCOC(=O)c1ccccc1C(=O)OCCCCCC [Dihexyl phthalate] | – | 1.38 | 1.19 | 1.17 | 1.16 |
| NC1=NC(O)C2C3OC4(O)OC(C(O)C2(N1)C4O)C3(O)CO (centres undefined) [Tetrodotoxin (TTX)] | 1.02 | 0.976 | 0.904 | 1.03 | 2.57 |
| CC1(C)C(C=C(Cl)Cl)C1C(=O)OC(C#N)c1ccc(F)c(Oc2ccccc2)c1 (centres undefined) [Cyfluthrin] | 1.01 | 1.31 | 1.27 | 0.975 | 1.1 |

| SMILES | Renilla luciferase signal (concentration: 0.01 uM) | Renilla luciferase signal (concentration: 0.1 uM) | Renilla luciferase signal (concentration: 1 uM) | Renilla luciferase signal (concentration: 10 uM) | Renilla luciferase signal (concentration: 100 uM) |
| --- | --- | --- | --- | --- | --- |
| C=CCOC(=O)c1ccccc1C(=O)OCC=C [Diallyl phthalate] | – | 0.826 | 0.959 | 0.98 | 1.09 |
| CC(O)CCO (centres undefined) [1,3-Butanediol] | – | 1.06 | 1.08 | 1.16 | 1.47 |
| CCOC(=O)CC(SP(=S)(OC)OC)C(=O)OCC (centres undefined) [Malathion] | 0.756 | 0.819 | 1.01 | 0.843 | 1.02 |
| C=CCC1=C(C)C(OC(=O)C2C(C=C(C)C)C2(C)C)CC1=O (centres undefined) [Allethrin] | 0.962 | 1.01 | 1.02 | 1.06 | 0.791 |
| CC(C)N(C(=O)COc1nnc(C(F)(F)F)s1)c1ccc(F)cc1 [Flufenacet] | 0.851 | 1.02 | 0.998 | 1.08 | 1.01 |
| CCc1cccc(CC)c1N [2,6-Diethylaniline] | – | 0.537 | 0.613 | 0.518 | 0.414 |
| O=C(O)CCCOc1ccc(Cl)cc1Cl | 1.02 | 0.895 | 0.898 | 0.957 | 1.44 |
| ClC1(Cl)C2(Cl)C3(Cl)C4(Cl)C(Cl)(Cl)C5(Cl)C3(Cl)C1(Cl)C5(Cl)C24Cl (centres undefined) [Mirex] | – | 1.03 | 1.1 | 1.12 | 1.14 |
| CCOP(=S)(Oc1ccc([N+](=O)[O-])cc1)c1ccccc1 (centres undefined) | – | 0.992 | 0.93 | 1.06 | 1.23 |
| COc1cc(OC)nc(NC(=O)[N-]S(=O)(=O)c2ncccc2OCC(F)(F)F)n1.[Na+] [Trifloxysulfuron-sodium] | 0.702 | 0.86 | 0.851 | 0.762 | 1.24 |
| CNC(=O)CSP(=S)(OC)OC [Dimethoate] | – | – | – | – | 1.67 |
| C=CCC1=C(C)[C@@H](OC(=O)[C@@H]2[C@@H](C=C(C)C)C2(C)C)CC1=O [S-Bioallethrin] | 0.864 | 1.03 | 0.952 | 0.869 | 0.425 |
| Nc1ccc(Cl)cc1N [4-Chloro-1,2-diaminobenzene] | – | 1.05 | 0.965 | 0.612 | 0.0486 |
| CCOC(=O)C(Cl)Cc1cc(-n2nc(C)n(C(F)F)c2=O)c(F)cc1Cl (centres undefined) [Carfentrazone-ethyl] | 0.995 | 1.11 | 0.895 | 0.956 | 1.9 |
| CC12CC1(C)C(=O)N(c1cc(Cl)cc(Cl)c1)C2=O (centres undefined) [Procymidone] | – | 0.813 | 1.07 | 1.07 | 1.27 |
| S=C1NCCN1 [Ethylene thiourea] | 1.02 | 0.976 | 0.949 | 0.976 | 1.49 |
| OCCOc1ccccc1 [2-Phenoxyethanol] | – | – | – | – | 1.74 |
| COC(=O)C(C)Oc1ccc(Oc2ccc(Cl)cc2Cl)cc1 (centres undefined) [Diclofop-methyl] | 1.01 | 0.869 | 0.732 | 0.936 | 2.15 |
| CCCCC(CC)COC(=O)c1ccccc1C(=O)O (centres undefined) | 0.848 | 1.06 | 0.966 | 1.04 | 1.23 |
| N#CC(CCc1ccc(Cl)cc1)(Cn1cncn1)c1ccccc1 (centres undefined) [Fenbuconazole] | 1.04 | 0.994 | 0.947 | 1 | 0.412 |
| NC(=O)[O-].[NH4+] [Ammonium carbamate] | – | 1.07 | 1.11 | 1.29 | 1.2 |
